Source: paper PMC5581032

Chains of the proteins cited; added tags and fusions are not shown. Lines headed by an entry give the natural chain unless they say otherwise; changes in a name come on top.
UniProt P03230: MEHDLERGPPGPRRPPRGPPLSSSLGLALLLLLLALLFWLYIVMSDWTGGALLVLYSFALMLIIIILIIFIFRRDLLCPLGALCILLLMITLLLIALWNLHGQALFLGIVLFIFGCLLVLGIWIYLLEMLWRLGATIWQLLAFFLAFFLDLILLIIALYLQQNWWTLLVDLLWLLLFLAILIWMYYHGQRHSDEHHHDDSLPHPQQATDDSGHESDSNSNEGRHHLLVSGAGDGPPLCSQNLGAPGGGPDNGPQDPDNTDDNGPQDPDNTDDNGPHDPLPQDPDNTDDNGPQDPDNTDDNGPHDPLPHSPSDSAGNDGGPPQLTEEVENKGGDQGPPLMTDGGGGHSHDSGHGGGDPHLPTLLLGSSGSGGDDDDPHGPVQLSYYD
UniProt P06396: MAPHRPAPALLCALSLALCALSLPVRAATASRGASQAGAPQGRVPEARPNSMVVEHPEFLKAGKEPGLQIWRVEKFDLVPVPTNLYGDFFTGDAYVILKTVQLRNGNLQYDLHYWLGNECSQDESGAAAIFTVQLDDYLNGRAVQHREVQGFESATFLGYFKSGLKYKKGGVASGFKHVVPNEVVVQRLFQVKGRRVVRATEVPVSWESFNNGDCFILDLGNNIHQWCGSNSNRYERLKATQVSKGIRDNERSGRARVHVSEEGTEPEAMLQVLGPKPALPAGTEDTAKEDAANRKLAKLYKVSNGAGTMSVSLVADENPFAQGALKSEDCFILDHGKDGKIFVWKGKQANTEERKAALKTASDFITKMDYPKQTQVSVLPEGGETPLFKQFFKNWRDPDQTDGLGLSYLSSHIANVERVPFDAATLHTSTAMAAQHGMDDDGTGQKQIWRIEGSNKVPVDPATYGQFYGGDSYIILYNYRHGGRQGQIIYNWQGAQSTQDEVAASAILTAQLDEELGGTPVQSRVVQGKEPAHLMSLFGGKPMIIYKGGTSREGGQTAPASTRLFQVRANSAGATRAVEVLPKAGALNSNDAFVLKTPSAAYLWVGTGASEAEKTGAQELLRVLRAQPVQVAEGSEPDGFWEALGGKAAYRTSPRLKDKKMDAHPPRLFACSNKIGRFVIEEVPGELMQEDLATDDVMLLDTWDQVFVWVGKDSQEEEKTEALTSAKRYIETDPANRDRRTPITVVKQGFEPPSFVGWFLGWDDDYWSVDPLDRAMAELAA

Biological target: Flag-tagged full-length Epstein-Barr virus latent membrane protein 1 (LMP1) (Epstein-Barr virus) (UniProt P03230)
Assay: co-IP; lysates of HEK293T cells transfected with Flag-LMP1 or Flag-LMP1ΔCT; anti-Flag IP (2 ug antibody, overnight, 4°C, protein A/G plus-Agarose), 4 washes with cold IP lysis buffer; anti-Flag and anti-gelsolin immunoblot

gelsolin (from UniProt P06396)
binding: binds

Results are given in words; binding and its absence hold for the method and conditions named. In cells and extracts the contact can be indirect. A result given as binding can be weak or reduced; the word gives no strength.
